{
  "source": "patent US20250302816A1",
  "about": "“DISRUPTION OF EPITHELIAL BARRIERS FOR MOLECULAR DELIVERY ENHANCEMENT OR EXTRACTION OF EXTRACELLULAR FLUIDS” (The University of Nottingham, priority 2022, published 2025)",
  "system": "Calu-3 cells",
  "experiment": "MTS assay of metabolic activity / cell viability",
  "format": "cell-based, human",
  "conditions": "5 nM, 1 μM, 50 μM, 100 μM and 200 μM, 6 hours, all cases",
  "note": "Some entries share one result that the patent states for a list of compounds.",
  "data": [
    {"smiles": "CCCCCCCCCC(=O)CC(=O)N[C@H]1CCOC1=O", "note": "[Agent 3OC12-HSL, N-(3-oxododecanoyl) homoserine lactone]", "values": [
      {"measurement": "cell viability", "result": "> 75", "unit": "%"}
    ]},
    {"smiles": "CCCCCCCc1[nH]c2ccccc2c(=O)c1O", "note": "[C7 PQS, 2-n-heptyl-3-hydroxy-4 (1H)-quinolone]", "values": [
      {"measurement": "cell viability", "result": "> 75", "unit": "%"}
    ]}
  ]
}
